Test results published in the supplement of paper PMC10849652.
Some of the results follow.

By UniProt entry, the sequences of proteins in these tests, tags left out. Where a name states a change or a piece, a line headed by the entry shows the natural chain unless it says otherwise.
UniProt P0DMB2: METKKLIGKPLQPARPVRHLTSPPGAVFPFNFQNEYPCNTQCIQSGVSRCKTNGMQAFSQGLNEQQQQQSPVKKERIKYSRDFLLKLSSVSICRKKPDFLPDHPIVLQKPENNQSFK
UniProt Q9BSU1: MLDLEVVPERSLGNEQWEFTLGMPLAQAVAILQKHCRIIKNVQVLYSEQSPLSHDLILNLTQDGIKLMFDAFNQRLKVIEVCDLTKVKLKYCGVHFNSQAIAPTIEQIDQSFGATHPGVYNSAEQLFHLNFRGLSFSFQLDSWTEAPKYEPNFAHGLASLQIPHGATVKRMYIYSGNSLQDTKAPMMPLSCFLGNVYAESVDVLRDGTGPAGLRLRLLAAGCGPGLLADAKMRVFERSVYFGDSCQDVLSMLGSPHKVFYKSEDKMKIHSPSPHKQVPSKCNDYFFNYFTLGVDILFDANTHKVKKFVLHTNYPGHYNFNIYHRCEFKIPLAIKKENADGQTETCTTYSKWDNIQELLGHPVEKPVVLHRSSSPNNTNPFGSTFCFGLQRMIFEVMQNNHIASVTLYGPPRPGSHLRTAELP
UniProt Q6P5X5: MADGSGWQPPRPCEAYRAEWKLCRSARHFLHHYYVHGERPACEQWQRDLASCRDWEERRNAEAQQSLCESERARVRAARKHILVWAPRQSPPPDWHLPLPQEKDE
UniProt Q9BRD0: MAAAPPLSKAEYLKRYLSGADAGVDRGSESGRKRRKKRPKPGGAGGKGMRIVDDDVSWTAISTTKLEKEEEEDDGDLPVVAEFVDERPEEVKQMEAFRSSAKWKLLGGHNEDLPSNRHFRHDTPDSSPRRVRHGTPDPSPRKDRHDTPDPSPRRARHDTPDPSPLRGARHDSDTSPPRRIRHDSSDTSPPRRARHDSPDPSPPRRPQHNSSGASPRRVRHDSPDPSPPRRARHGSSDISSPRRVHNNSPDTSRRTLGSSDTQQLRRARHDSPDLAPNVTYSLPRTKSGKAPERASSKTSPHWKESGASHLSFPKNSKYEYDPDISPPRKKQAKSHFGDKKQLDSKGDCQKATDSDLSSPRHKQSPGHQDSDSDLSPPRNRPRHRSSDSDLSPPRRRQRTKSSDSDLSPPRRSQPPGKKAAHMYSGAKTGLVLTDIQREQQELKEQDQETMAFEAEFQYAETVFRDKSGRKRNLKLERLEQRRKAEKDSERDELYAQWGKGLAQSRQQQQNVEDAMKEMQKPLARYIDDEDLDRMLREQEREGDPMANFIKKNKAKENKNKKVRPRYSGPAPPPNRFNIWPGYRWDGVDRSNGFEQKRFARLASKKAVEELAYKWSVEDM
UniProt Q9H9S4: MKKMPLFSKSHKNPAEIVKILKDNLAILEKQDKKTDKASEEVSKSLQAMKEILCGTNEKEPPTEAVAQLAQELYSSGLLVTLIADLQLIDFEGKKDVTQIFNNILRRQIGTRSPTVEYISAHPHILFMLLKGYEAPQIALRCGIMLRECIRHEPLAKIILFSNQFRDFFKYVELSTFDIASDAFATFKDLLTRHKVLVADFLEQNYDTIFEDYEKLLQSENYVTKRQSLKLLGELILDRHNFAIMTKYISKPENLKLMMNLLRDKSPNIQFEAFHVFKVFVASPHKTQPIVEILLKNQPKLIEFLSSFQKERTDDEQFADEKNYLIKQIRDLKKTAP
UniProt Q9Y2V0: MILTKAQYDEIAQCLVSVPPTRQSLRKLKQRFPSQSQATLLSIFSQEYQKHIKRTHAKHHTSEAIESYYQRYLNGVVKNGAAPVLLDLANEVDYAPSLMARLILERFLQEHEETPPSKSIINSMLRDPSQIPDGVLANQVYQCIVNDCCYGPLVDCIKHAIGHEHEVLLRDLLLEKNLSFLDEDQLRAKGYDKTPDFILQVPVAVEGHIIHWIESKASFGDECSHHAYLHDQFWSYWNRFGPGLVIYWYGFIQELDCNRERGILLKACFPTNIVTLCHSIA
UniProt Q7Z6I8: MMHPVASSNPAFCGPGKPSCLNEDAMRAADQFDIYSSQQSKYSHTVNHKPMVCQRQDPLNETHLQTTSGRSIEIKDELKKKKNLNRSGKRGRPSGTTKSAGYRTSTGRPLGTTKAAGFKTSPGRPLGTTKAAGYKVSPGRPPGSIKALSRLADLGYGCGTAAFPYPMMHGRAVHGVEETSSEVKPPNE
UniProt Q13901: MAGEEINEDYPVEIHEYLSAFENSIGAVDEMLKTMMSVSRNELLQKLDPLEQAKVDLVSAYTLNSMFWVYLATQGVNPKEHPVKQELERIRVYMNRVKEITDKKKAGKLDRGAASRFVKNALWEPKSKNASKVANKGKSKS
UniProt Q5SQH8: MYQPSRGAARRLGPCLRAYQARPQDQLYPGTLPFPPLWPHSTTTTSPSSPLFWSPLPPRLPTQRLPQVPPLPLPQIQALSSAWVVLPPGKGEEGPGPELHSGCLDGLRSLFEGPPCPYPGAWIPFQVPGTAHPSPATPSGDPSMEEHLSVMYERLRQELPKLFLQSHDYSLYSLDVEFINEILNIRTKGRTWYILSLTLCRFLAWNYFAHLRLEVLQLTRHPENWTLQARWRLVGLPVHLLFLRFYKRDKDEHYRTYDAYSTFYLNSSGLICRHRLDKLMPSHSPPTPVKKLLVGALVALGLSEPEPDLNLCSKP

Experiments:
Experiment in all cases: log2 fold change, soluble protein after heating vs DMSO (PISA); higher = thermal stabilisation; K562 cells, 10 uM, 30 min; active = over 0.2 and 3.5 SD of the protein, either way, in both replicates (recomputed)
[1] = compound: CC[C@@H]1C(=O)N(C)c2cnc(Nc3ccc(C(=O)N[C@H]4CC[C@H](N5CCN(CC6CC6)CC5)CC4)cc3OC)nc2N1C(C)C [volasertib]
Summary of the method: (§1)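 K562 cells at 2×10^6 cells/mL were treated for 30 min with 10 μM compound, and aliquots were heated for 3 min over 48°C-58°C before pooling. Extraction used PBS with 0.5% NP-40 at 4°C, and soluble protein was the supernatant after 21,000xg for 90 min, measured by TMTpro 16plex LC-MS/MS with channel sums equalised. Thermal stability values, relative to control samples and from duplicates, are log2 fold changes.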

[2] = compound: CC[C@H](C)[C@@H](C(=O)N[C@@H]([C@@H](C)O)C(=O)N[C@@H](CC(C)C)C(=O)[C@]1(CO1)C)NC(=O)[C@H]([C@@H](C)CC)N(C)C(=O)C [epoxomicin]
Summary of the method: as §1

[3] = compound: CCn1c(C(=O)N(C2CC2)C2CC2)cc2c3c(ncn3C)c(Nc3cc(C)n(C)n3)nc21
Summary of the method: as §1

[4] = compound: CCn1cc(-c2ccnc3[nH]c(-c4cccc(CN(C)C)c4)cc23)c(-c2ccc(NC(=O)N(C)C)cc2)n1
Summary of the method: as §1

[5] = compound: CN(C)CC(=O)Nc1ccc2[nH]c(=O)c3ccccc3c2c1
Summary of the method: as §1

[6] = compound: CN(CCOC1=CC=C(C=C1)C[C@H]2C(=O)NC(=O)S2)C3=CC=CC=N3 (racemic) [rosiglitazone]
Summary of the method: as §1

[7] = compound: CN1CCC(CNc2ccc3ncc(-c4cccc(OC(F)(F)F)c4)n3n2)CC1
Summary of the method: as §1

[8] = compound: CC[C@@H]1C(=O)N(C)c2cnc(Nc3ccc(C(=O)NC4CCN(C)CC4)cc3OC)nc2N1C1CCCC1
Summary of the method: as §1

[9] = compound: CC[C@H](C)N1C=C(C2=C(C=C(C=C21)C3=CN=C(C=C3)N4CCNCC4)C(=O)NCC5=C(C=C(NC5=O)C)C)C
Summary of the method: as §1

[10] = compound: CN1C2=C(C3=C1C(=O)N(N=C3)CC4=CC(=CC=C4)N)SC(=C2)S(=O)C
Summary of the method: as §1

Measured: log2 fold change

C8orf88 (UniProt P0DMB2)
inactive: [1] 0.069 | [2] 0.115 | [3] -0.061 | [4] 0 | [5] -0.046 | [6] 0.084 | [7] -0.176

C16orf70 (UniProt Q9BSU1)
inactive: [8] 0.167 | [1] -0.102 | [2] 0.219

C22orf39 (UniProt Q6P5X5)
inactive: [1] 0.134 | [9] -0.042 | [2] 0.081 | [10] 0.043

BUD13 (UniProt Q9BRD0)
inactive: [1] 0.187 | [9] -0.044 | [2] -0.251 | [3] -0.024 | [4] 0.089 | [5] -0.18 | [10] 0.17 | [7] 0.016

2 successive entries already listed, for reference:
C16orf70 (UniProt Q9BSU1)
inactive: [8] 0.167 | [1] -0.102 | [2] 0.219

C22orf39 (UniProt Q6P5X5)
inactive: [1] 0.134 | [9] -0.042 | [2] 0.081 | [10] 0.043

Additional entries.

CAB39L (UniProt Q9H9S4)
inactive: [8] -0.134 | [1] -0.054 | [2] 0.018 | [4] 0.161 | [5] -0.169 | [10] -0.047 | [7] 0.072

C15orf41 (UniProt Q9Y2V0)
inactive: [8] -0.04 | [1] -0.188 | [2] -0.165 | [5] -0.022 | [10] 0.019 | [7] 0.001
active: [4] -0.333

C5orf24 (UniProt Q7Z6I8)
inactive: [1] 0.302 | [9] -0.183 | [2] 0.123 | [4] 0.14 | [5] -0.104 | [10] 0.123 | [7] -0.035

C1D (UniProt Q13901)
inactive: [8] 0.088 | [1] 0.076 | [9] -0.034 | [2] 0.02 | [4] -0.021 | [5] -0.127 | [7] 0.096

C6orf136 isoform 4 (UniProt Q5SQH8)
inactive: [8] 0.014 | [9] -0.254 | [3] -0.06 | [6] -0.083 | [10] -0.004
